Measured values published in PMC10779086, “3-O-Methyltolcapone and Its Lipophilic Analogues Are Potent Inhibitors of Transthyretin Amyloidogenesis with High Permeability and Low Toxicity” (International Journal of Molecular Sciences, 2023).

Test system: HepG2 human liver cancer cell line
Test: Cytotoxicity in HepG2 cells (ATP viability assay)
Type: cell-based
Settings: 48 h
Description: The human liver cancer cell line HepG2 (ATCC HB-8065) was cultured in MEM ATCC medium supplemented with 10% FBS (Euroclone CAT No. ECS0180D), 100 units/mL penicillin, and 100 ug/mL streptomycin sulphate (Euroclone CAT No. ECB3001). Cells were grown at 37 °C in an atmosphere of 5% CO2 and plated at 10,000 cells/well in a 96-well plate (Corning Cat. N. 3610). Compounds were dissolved at the concentration of 50 mM in DMSO.
Cells were stimulated for 48 h at 37 °C with serial dilutions of the compounds at the following concentrations: 0.1, 1, 10, 50, 100, 200, 300, and 500 μM and dispensed with an HP Dispenser (Tecan), as triplicates for each concentration. DMSO normalisation at 1.0% was performed in each well. Lysis buffer was used as a positive control of dead cells with tamoxifen (Sigma-Aldrich CAT No. T5648).
Cell viability was evaluated by measuring ATP levels using CellTiter Glo (Promega Cat.n. G7570) according to manufacturer’s instructions.

SMILES: CC/C(=C(\c1ccccc1)c1ccc(OCCN(C)C)cc1)c1ccccc1 [Tamoxifen, tamoxifen, reference compound]
- EC50: 14 µM
